# Experimental data: PMC5851652
# Sequences of proteins named here, by UniProt entry; tags and fusion partners are left off.
# UniProt Q9NR30: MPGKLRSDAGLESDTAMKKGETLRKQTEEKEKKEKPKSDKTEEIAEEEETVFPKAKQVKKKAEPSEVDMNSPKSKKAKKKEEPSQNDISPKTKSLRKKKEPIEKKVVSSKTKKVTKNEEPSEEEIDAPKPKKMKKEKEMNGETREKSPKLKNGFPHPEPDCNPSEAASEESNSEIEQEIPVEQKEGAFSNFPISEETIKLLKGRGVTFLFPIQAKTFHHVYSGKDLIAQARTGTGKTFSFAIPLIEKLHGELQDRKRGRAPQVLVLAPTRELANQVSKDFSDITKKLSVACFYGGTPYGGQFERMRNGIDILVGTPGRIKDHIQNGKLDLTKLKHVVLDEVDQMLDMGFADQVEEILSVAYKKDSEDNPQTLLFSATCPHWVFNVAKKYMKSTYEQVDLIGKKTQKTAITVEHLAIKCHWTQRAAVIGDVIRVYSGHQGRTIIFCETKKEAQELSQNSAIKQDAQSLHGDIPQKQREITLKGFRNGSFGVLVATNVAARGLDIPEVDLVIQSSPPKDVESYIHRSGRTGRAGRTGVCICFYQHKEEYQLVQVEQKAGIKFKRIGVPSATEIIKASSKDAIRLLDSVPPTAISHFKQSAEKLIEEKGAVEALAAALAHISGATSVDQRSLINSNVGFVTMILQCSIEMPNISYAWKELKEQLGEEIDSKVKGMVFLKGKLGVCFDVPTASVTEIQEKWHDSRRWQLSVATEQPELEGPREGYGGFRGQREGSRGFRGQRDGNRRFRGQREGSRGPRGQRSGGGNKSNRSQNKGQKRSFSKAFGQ
# UniProt P68104: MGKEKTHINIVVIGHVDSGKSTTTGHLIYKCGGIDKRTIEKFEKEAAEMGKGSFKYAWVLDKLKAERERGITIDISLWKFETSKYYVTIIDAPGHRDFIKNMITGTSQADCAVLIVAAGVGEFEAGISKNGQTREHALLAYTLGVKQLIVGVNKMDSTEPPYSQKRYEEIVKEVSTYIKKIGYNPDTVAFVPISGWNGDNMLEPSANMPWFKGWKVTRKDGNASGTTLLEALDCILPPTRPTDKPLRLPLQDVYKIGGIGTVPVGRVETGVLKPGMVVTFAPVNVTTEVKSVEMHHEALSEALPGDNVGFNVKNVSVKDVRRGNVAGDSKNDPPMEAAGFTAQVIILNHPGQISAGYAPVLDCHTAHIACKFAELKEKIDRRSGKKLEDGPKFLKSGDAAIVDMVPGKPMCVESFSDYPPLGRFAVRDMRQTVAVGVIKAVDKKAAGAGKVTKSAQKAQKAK
# UniProt P05387: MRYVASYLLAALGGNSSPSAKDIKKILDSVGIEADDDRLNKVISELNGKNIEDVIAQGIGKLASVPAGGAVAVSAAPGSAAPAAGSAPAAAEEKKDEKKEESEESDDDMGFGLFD
# UniProt P04792: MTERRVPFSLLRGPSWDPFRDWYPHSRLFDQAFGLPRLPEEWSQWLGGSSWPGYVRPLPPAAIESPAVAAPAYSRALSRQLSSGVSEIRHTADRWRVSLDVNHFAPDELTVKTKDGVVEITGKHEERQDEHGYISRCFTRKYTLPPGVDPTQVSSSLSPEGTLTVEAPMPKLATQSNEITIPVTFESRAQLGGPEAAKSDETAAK
# UniProt Q7Z7K6: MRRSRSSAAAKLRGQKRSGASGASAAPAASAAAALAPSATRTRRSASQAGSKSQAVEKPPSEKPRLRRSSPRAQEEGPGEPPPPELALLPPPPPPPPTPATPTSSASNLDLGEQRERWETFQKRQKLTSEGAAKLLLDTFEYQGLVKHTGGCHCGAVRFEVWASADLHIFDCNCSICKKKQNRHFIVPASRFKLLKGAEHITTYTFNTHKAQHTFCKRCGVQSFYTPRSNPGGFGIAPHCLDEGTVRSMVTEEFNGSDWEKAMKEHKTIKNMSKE
# UniProt Q5SSJ5: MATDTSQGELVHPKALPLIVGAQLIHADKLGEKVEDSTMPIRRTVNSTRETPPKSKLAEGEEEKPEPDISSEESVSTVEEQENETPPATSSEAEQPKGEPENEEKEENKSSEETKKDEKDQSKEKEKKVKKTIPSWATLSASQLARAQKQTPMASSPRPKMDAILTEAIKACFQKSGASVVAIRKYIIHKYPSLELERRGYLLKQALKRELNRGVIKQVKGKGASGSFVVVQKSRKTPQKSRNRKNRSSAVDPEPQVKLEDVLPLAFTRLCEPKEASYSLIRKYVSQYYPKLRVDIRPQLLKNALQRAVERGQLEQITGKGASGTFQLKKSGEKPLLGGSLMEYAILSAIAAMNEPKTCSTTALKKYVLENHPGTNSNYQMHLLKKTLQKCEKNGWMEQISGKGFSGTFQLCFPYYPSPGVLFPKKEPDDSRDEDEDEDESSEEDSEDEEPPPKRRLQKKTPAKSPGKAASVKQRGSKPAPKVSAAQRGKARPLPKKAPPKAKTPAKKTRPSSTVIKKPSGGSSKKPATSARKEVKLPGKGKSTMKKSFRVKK
# UniProt P11940: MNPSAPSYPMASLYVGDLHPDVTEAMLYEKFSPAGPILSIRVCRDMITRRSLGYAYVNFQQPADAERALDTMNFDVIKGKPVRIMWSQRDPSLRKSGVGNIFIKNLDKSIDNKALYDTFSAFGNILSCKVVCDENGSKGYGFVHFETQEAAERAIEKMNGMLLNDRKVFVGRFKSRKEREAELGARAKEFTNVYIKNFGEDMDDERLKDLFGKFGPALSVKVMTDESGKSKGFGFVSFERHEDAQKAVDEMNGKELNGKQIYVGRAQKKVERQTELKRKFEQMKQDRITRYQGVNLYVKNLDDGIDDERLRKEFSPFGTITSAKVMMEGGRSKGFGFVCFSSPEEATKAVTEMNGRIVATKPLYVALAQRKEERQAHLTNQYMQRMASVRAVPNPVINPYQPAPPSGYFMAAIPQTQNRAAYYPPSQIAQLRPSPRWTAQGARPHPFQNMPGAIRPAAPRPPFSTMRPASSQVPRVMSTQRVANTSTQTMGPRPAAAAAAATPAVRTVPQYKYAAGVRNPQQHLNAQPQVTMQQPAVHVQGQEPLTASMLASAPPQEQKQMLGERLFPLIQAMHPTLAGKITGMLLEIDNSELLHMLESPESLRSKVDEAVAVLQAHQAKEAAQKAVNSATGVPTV
# UniProt Q9BRT6: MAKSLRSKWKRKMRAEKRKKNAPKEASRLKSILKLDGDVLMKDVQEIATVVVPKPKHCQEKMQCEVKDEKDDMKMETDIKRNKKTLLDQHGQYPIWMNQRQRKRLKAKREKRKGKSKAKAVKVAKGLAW
# UniProt P08670: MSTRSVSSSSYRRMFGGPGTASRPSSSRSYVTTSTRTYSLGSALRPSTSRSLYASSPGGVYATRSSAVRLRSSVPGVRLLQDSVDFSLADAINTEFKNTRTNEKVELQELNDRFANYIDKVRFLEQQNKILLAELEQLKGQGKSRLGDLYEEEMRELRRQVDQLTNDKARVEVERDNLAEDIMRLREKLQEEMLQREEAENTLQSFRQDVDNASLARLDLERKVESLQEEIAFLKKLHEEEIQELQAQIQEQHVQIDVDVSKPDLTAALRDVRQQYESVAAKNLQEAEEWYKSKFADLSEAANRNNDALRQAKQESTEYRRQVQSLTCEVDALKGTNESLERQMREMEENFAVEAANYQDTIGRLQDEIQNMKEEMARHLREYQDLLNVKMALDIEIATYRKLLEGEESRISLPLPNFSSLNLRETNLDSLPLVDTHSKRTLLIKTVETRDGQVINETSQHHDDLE
# UniProt P98175: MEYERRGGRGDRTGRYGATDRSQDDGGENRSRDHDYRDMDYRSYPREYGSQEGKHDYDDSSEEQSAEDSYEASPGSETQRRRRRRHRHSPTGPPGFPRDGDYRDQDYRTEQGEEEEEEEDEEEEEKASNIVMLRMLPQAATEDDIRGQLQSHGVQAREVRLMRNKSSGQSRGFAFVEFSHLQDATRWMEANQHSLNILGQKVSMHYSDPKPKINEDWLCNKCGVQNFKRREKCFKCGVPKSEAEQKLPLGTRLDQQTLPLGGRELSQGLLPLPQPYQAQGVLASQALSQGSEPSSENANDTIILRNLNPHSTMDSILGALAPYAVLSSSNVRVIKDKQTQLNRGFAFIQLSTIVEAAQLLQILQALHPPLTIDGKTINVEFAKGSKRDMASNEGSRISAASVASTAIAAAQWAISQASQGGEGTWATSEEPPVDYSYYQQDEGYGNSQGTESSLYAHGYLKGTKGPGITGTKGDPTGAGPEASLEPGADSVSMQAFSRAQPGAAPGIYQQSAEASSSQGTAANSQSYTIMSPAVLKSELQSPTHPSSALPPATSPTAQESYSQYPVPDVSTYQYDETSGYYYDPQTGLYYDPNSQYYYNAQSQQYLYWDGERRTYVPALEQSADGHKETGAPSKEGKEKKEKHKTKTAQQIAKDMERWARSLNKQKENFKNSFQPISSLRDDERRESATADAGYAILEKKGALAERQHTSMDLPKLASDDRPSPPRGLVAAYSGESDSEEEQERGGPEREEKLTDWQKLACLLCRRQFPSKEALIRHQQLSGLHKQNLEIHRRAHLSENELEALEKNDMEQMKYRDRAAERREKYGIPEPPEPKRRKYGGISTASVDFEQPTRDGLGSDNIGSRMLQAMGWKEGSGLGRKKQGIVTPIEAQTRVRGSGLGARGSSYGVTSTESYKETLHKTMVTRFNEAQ
# UniProt Q9NQT4: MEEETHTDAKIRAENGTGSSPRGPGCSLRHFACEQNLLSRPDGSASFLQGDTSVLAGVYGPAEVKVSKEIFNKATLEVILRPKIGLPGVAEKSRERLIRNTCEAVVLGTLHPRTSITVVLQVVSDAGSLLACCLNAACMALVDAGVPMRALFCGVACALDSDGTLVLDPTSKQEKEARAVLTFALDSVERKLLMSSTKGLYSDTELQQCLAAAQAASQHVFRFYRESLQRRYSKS
# UniProt P51114: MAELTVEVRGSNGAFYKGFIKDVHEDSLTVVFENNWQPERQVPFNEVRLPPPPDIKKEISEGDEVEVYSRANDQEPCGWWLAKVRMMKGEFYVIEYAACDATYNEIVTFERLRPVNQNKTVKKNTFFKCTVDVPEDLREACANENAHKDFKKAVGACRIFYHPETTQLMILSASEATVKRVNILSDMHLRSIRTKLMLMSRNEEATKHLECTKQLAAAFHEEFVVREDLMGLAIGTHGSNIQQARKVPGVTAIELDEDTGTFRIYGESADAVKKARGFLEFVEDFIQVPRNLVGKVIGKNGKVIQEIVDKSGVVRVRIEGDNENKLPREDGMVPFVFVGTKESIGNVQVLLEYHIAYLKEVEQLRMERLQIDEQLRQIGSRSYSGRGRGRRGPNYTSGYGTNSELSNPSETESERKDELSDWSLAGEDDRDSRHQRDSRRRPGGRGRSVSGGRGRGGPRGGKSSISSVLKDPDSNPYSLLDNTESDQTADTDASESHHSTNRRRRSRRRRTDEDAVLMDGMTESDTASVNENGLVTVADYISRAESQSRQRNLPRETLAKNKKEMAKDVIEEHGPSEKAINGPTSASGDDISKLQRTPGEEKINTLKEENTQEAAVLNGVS
# UniProt P67809: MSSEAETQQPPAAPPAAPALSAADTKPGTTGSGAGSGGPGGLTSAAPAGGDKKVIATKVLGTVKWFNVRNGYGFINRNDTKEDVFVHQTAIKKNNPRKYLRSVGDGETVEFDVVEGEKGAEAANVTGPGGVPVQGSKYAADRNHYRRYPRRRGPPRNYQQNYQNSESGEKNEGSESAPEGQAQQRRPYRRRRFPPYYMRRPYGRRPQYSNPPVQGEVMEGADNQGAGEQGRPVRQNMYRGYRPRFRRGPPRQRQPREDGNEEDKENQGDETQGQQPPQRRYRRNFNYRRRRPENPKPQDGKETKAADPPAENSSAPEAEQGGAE
# No constants are given. Whether binding was seen depends on the method and setting. Binding seen in cells or lysates may run through a third protein. These calls come from enrichment with a bait or labelling near it, and not all partners need be listed. Tags and fused reporters may be left off the sequences shown.
# T1: OASL-myc (human) (UniProt Q15646)
# T1 sequence: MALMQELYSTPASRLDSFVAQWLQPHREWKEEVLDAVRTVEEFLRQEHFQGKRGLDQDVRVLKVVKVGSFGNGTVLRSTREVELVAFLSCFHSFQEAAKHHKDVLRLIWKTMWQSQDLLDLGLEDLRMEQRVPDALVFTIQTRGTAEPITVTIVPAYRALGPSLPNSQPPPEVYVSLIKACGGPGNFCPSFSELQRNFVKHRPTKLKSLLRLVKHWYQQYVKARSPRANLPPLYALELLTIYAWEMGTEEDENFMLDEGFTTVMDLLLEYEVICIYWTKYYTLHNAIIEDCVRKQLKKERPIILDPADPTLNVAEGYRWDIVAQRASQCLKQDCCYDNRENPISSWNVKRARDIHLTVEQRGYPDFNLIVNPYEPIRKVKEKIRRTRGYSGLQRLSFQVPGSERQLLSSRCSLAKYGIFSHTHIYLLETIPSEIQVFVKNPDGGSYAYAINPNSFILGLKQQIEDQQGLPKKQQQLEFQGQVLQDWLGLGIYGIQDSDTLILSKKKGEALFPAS
# B1: Ribosome biogenesis protein BRX1 homolog (protein, UniProt Q8TDN6 1-353)
# chain: MAATKRKRRGGFAVQAKKPKRNEIDAEPPAKRHATAEEVEEEERDRIPGPVCKGKWKNKERILIFSSRGINFRTRHLMQDLRMLMPHSKADTKMDRKDKLFVINEVCEMKNCNKCIYFEAKKKQDLYMWLSNSPHGPSAKFLVQNIHTLAELKMTGNCLKGSRPLLSFDPAFDELPHYALLKELLIQIFSTPRYHPKSQPFVDHVFTFTILDNRIWFRNFQIIEEDAALVEIGPRFVLNLIKIFQGSFGGPTLYENPHYQSPNMHRRVIRSITAAKYREKQQVKDVQKLRKKEPKTLLPHDPTADVFVTPAEEKPIEIQWVKPEPKVDLKARKKRIYKRQRKMKQRMDSGKTK
# B2: Uncharacterized protein C7orf50 (protein, UniProt Q9BRJ6 1-194)
# chain: MAKQKRKVPEVTEKKNKKLKKASAEGPLLGPEAAPSGEGAGSKGEAVLRPGLDAEPELSPEEQRVLERKLKKERKKEERQRLREAGLVAQHPPARRSGAELALDYLCRWAQKHKNWRFQKTRQTWLLLHMYDSDKVPDEHFSTLLAYLEGLQGRARELTVQKAEALMRELDEEGSDPPLPGRAQRIRQVLQLLS
# B3: Ribosome biogenesis regulatory protein homolog (protein, UniProt Q15050 1-365)
# chain: MEGQSVEELLAKAEQDEAEKLQRITVHKELELQFDLGNLLASDRNPPTGLRCAGPTPEAELQALARDNTQLLINQLWQLPTERVEEAIVARLPEPTTRLPREKPLPRPRPLTRWQQFARLKGIRPKKKTNLVWDEVSGQWRRRWGYQRARDDTKEWLIEVPGNADPLEDQFAKRIQAKKERVAKNELNRLRNLARAHKMQLPSAAGLHPTGHQSKEELGRAMQVAKVSTASVGRFQERLPKEKVPRGSGKKRKFQPLFGDFAAEKKNQLELLRVMNSKKPQLDVTRATNKQMREEDQEEAAKRRKMSQKGKRKGGRQGPGGKRKGGPPSQGGKRKGGLGGKMNSGPPGLGGKRKGGQRPGGKRRK
# B4: Putative oxidoreductase GLYR1 (protein, UniProt Q49A26 1-553)
# chain: MAAVSLRLGDLVWGKLGRYPPWPGKIVNPPKDLKKPRGKKCFFVKFFGTEDHAWIKVEQLKPYHAHKEEMIKINKGKRFQQAVDAVEEFLRRAKGKDQTSSHNSSDDKNRRNSSEERSRPNSGDEKRKLSLSEGKVKKNMGEGKKRVSSGSSERGSKSPLKRAQEQSPRKRGRPPKDEKDLTIPESSTVKGMMAGPMAAFKWQPTASEPVKDADPHFHHFLLSQTEKPAVCYQAITKKLKICEEETGSTSIQAADSTAVNGSITPTDKKIGFLGLGLMGSGIVSNLLKMGHTVTVWNRTAEKCDLFIQEGARLGRTPAEVVSTCDITFACVSDPKAAKDLVLGPSGVLQGIRPGKCYVDMSTVDADTVTELAQVIVSRGGRFLEAPVSGNQQLSNDGMLVILAAGDRGLYEDCSSCFQAMGKTSFFLGEVGNAAKMMLIVNMVQGSFMATIAEGLTLAQVTGQSQQTLLDILNQGQLASIFLDQKCQNILQGNFKPDFYLKYIQKDLRLAIALGDAVNHPTPMAAAANEVYKRAKALDQSDNDMSAVYRAYIH
# B5: Ataxin-2-like protein (protein, UniProt Q8WWM7 1-1075)
# chain: MLKPQPLQQPSQPQQPPPTQQAVARRPPGGTSPPNGGLPGPLATSAAPPGPPAAASPCLGPVAAAGSGLRRGAEGILAPQPPPPQQHQERPGAAAIGSARGQSTGKGPPQSPVFEGVYNNSRMLHFLTAVVGSTCDVKVKNGTTYEGIFKTLSSKFELAVDAVHRKASEPAGGPRREDIVDTMVFKPSDVMLVHFRNVDFNYATKDKFTDSAIAMNSKVNGEHKEKVLQRWEGGDSNSDDYDLESDMSNGWDPNEMFKFNEENYGVKTTYDSSLSSYTVPLEKDNSEEFRQRELRAAQLAREIESSPQYRLRIAMENDDGRTEEEKHSAVQRQGSGRESPSLASREGKYIPLPQRVREGPRGGVRCSSSRGGRPGLSSLPPRGPHHLDNSSPGPGSEARGINGGPSRMSPKAQRPLRGAKTLSSPSNRPSGETSVPPPPAVGRMYPPRSPKSAAPAPISASCPEPPIGSAVPTSSASIPVTSSVSDPGVGSISPASPKISLAPTDVKELSTKEPGRTLEPQELARIAGKVPGLQNEQKRFQLEELRKFGAQFKLQPSSSPENSLDPFPPRILKEEPKGKEKEVDGLLTSEPMGSPVSSKTESVSDKEDKPPLAPSGGTEGPEQPPPPCPSQTGSPPVGLIKGEDKDEGPVAEQVKKSTLNPNAKEFNPTKPLLSVNKSTSTPTSPGPRTHSTPSIPVLTAGQSGLYSPQYISYIPQIHMGPAVQAPQMYPYPVSNSVPGQQGKYRGAKGSLPPQRSDQHQPASAPPMMQAAAAAGPPLVAATPYSSYIPYNPQQFPGQPAMMQPMAHYPSQPVFAPMLQSNPRMLTSGSHPQAIVSSSTPQYPSAEQPTPQALYATVHQSYPHHATQLHAHQPQPATTPTGSQPQSQHAAPSPVQHQAGQAPHLGSGQPQQNLYHPGALTGTPPSLPPGPSAQSPQSSFPQPAAVYAIHHQQLPHGFTNMAHVTQAHVQTGITAAPPPHPGAPHPPQVMLLHPPQSHGGPPQGAVPQSGVPALSASTPSPYPYIGHPQGEQPGQAPGFPGGADDRIREFSLAGGIWHGRAEGLQVGQDARVLGGE
# B6: Coiled-coil domain-containing protein 137 (protein, UniProt Q6PK04 1-289)
# chain: MAGAGRGAAVSRVQAGPGSPRRARGRQQVQPLGKQRPAPWPGLRSKEKKKVNCKPKNQDEQEIPFRLREIMRSRQEMKNPISNKKRKKAAQVTFRKTLEKEAKGEEPDIAVPKFKQRKGESDGAYIHRMQQEAQHVLFLSKNQAIRQPEVQAAPKEKSEQKKAKKAFQKRRLDKVRRKKEEKAADRLEQELLRDTVKFGEVVLQPPELTARPQRSVSKDQPGRRSQMLRMLLSPGGVSQPLTASLARQRIVEEERERAVQAYRALKQRQQQLHGERPHLTSRKKPEPQL
# B7: Double-stranded RNA-binding protein Staufen homolog 2 (protein, UniProt Q9NUL3 1-570)
# chain: MANPKEKTAMCLVNELARFNRVQPQYKLLNERGPAHSKMFSVQLSLGEQTWESEGSSIKKAQQAVANKALTESTLPKPVQKPPKSNVNNNPGSITPTVELNGLAMKRGEPAIYRPLDPKPFPNYRANYNFRGMYNQRYHCPVPKIFYVQLTVGNNEFFGEGKTRQAARHNAAMKALQALQNEPIPERSPQNGESGKDVDDDKDANKSEISLVFEIALKRNMPVSFEVIKESGPPHMKSFVTRVSVGEFSAEGEGNSKKLSKKRAATTVLQELKKLPPLPVVEKPKLFFKKRPKTIVKAGPEYGQGMNPISRLAQIQQAKKEKEPDYVLLSERGMPRRREFVMQVKVGNEVATGTGPNKKIAKKNAAEAMLLQLGYKASTNLQDQLEKTGENKGWSGPKPGFPEPTNNTPKGILHLSPDVYQEMEASRHKVISGTTLGYLSPKDMNQPSSSFFSISPTSNSSATIARELLMNGTSSTAEAIGLKGSSPTPPCSPVQPSKQLEYLARIQGFQAALSALKQFSEQGLDPIDGAMNIEKGSLEKQAKHLREKADNNQAPPGSIAQDCKKSNSAV
# B8: rRNA 2'-O-methyltransferase fibrillarin (protein, UniProt P22087 1-321)
# chain: MKPGFSPRGGGFGGRGGFGDRGGRGGRGGFGGGRGRGGGFRGRGRGGGGGGGGGGGGGRGGGGFHSGGNRGRGRGGKRGNQSGKNVMVEPHRHEGVFICRGKEDALVTKNLVPGESVYGEKRVSISEGDDKIEYRAWNPFRSKLAAAILGGVDQIHIKPGAKVLYLGAASGTTVSHVSDIVGPDGLVYAVEFSHRSGRDLINLAKKRTNIIPVIEDARHPHKYRMLIAMVDVIFADVAQPDQTRIVALNAHTFLRNGGHFVISIKANCIDSTASAEAVFASEVKKMQQENMKPQEQLTLEPYERDHAVVVGVYRPPPKVKN
# B9: M-phase phosphoprotein 6 (protein, UniProt Q99547 1-160)
# chain: MAAERKTRLSKNLLRMKFMQRGLDSETKKQLEEEEKKIISEEHWYLDLPELKEKESFIIEEQSFLLCEDLLYGRMSFRGFNPEVEKLMLQMNAKHKAEEVEDETVELDVSDEEMARRYETLVGTIGKKFARKRDHANYEEDENGDITPIKAKKMFLKPQD
# B10: Nucleolar protein 16 (protein, UniProt Q9Y3C1 1-178)
# chain: MPKAKGKTRRQKFGYSVNRKRLNRNARRKAAPRIECSHIRHAWDHAKSVRQNLAEMGLAVDPNRAVPLRKRKVKAMEVDIEERPKELVRKPYVLNDLEAEASLPEKKGNTLSRDLIDYVRYMVENHGEDYKAMARDEKNYYQDTPKQIRSKINVYKRFYPAEWQDFLDSLQKRKMEVE
# Molecular target: T1, OASL-myc (human)
# Assay: affinity purification with mass spectrometry; q-AP-MS: SILAC-labelled HeLa S3 cells transfected with the myc-tagged bait or LacZ-myc (forward and crossover); NP-40 lysis buffer with benzonase, 1 h at 4°C; anti-c-myc microbeads; LC-MS/MS
row,Molecule,binding
1,Nucleolar RNA helicase 2 (from UniProt Q9NR30 1-783),binds
2,Elongation factor 1-alpha 1 (from UniProt P68104 1-462),binds
3,60S acidic ribosomal protein P2 (from UniProt P05387 1-115),binds
4,Heat shock protein beta-1 (from UniProt P04792 1-205),binds
5,Centromere protein V (from UniProt Q7Z7K6 1-275),binds
6,Heterochromatin protein 1-binding protein 3 (from UniProt Q5SSJ5 1-553),binds
7,Polyadenylate-binding protein 1 (from UniProt P11940 1-636),binds
8,Protein LLP homolog (from UniProt Q9BRT6 1-129),binds
9,Vimentin (from UniProt P08670 1-466),binds
10,60S acidic ribosomal protein P1 (from UniProt P05386 1-114),binds
11,RNA-binding protein 10 (from UniProt P98175 1-930),binds
12,Exosome complex component RRP46 (from UniProt Q9NQT4 1-235),binds
13,Fragile X mental retardation syndrome-related protein 1 (from UniProt P51114 1-621),binds
14,Nuclease-sensitive element-binding protein 1 (from UniProt P67809 1-324),binds
15,B1,binds
16,B2,binds
17,B3,binds
18,B4,binds
19,B5,binds
20,B6,binds
21,B7,binds
22,B8,binds
23,B9,binds
24,B10,binds
